According to PubChem BioAssay AID434947 (Broad Institute, 2010):
About 15 (0.7%) of roughly 2,200 compounds were called active.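 How the source made its calls: active means fitted half-maximal concentration for loss of luminescence signal no more than a set limit of log units above the top tested concentration; inconclusive means flat fit with 30 to 70% signal loss, or invalid fit; inactive means half-maximal concentration above that set limit.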 The list shows a part of the results.

test: ADP-Glo luciferase signal interference – biochemical, luminescence, cell-free, homogeneous, artefact control for GSK3beta inhibitor project, dose response (AID 434947); settings: Cell-free ADP-Glo reagents, 5 uM ADP;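 further: kinase-free counter screen of ADP-Glo detection reagents for GSK3beta hits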

EC50, inactive:
Nc1nc(Nc2cccc(Cl)c2)nc(NCCO)c1[N+](=O)[O-] > 30 µM, CN1CCc2c(sc3c2C(=O)NC(c2cccs2)N3)C1 (stereo unspecified) > 30 µM, O=C(CCS(=O)(=O)Cc1ccccc1)Nc1ncc([N+](=O)[O-])s1 > 30 µM, Cc1ccc(OCC(=O)N/N=C\c2ccc(O)cc2)c([N+](=O)[O-])c1 > 30 µM, COc1cc(C2C(C#N)=C(C)NC3=C2C(=O)CC(C)(C)C3)ccc1O (stereo unspecified) > 30 µM, CC(=O)N1CCc2c(sc(NC(=O)CS(=O)(=O)c3ccc(F)cc3)c2C(N)=O)C1 > 30 µM, CN(C)C(CNC(=O)c1ccc2ccccc2c1)c1ccco1 (stereo unspecified) > 30 µM, CSc1nc(SCC(=O)NC(c2ccccc2)c2ccccc2)c2c3c(sc2n1)CN(C)CC3 > 30 µM, O=c1cc(-c2ccncc2)oc2ccccc12 > 30 µM, COC(=O)c1cc(C(=O)Nc2cc(C)ccn2)cc([N+](=O)[O-])c1 > 30 µM, c1ccc(CSc2ccc3nnc(-c4ccccn4)n3n2)cc1 > 30 µM, COc1ccccc1N(CC(=O)N1CCc2ccccc2C1)S(C)(=O)=O > 30 µM, O=C(Cc1ccc([N+](=O)[O-])cc1)Nc1ccc2c(c1)C(=O)NC2=O > 30 µM, CC1CN(c2nc(Nc3ccccc3)nc(N)c2[N+](=O)[O-])CC(C)O1 (stereo unspecified) > 30 µM, CC(C)(C)C(=O)COC(=O)c1ccc(O)cc1 > 30 µM, O=C(C1CCCN(S(=O)(=O)c2ccccc2)C1)N1CCN(c2ncccn2)CC1 (stereo unspecified) > 30 µM, COc1cccc(OC)c1OCCNCC1COc2ccccc2O1 (stereo unspecified) > 30 µM, CCOC(=O)C1CCN(c2cc(C)nc3ccc(OC)cc23)CC1 > 30 µM, Cc1ccc(NC(=O)C2CCN(S(=O)(=O)c3ccc4c(c3)NC(=O)C(C)S4)CC2)c(Cl)c1 (stereo unspecified) > 30 µM, Nc1nc(NCc2ccccc2)nc(Nc2cccc(F)c2)c1[N+](=O)[O-] > 30 µM, O=C(CN(Cc1ccc(F)cc1)C(=O)CCC(=O)Nc1ccccn1)NCc1ccc(F)cc1 > 30 µM, O=C(Cc1ccc(F)cc1)N/N=C/c1ccc(-c2ccc(Cl)c(C(=O)O)c2)o1 > 30 µM, COc1ccc(N2C(=O)C3CCCN3C2c2ccccc2F)cc1 (stereo unspecified) > 30 µM, O=C(CN(Cc1cccs1)C(=O)CCC(=O)Nc1nccs1)NCc1ccccc1 > 30 µM, CCOC(=O)C1=C(C)Nc2ncnn2C1c1cccs1 (stereo unspecified) > 30 µM, COc1cc(C2OCC3C(c4cc(OC)c(OC)c(OC)c4)OCC23)cc(OC)c1OC (stereo unspecified) > 30 µM, Cc1ccc2c(c1)cc1c(=O)n(CC(=O)NCCN3CCCC3)nc(C)n12 > 30 µM, CCn1c(COc2ccccc2)nnc1SCC(=O)NC1CC1 > 30 µM, CCN(CC)S(=O)(=O)c1cccc(NC(=O)COc2ccc(Cl)cc2Br)c1 > 30 µM, CCSc1ccc2nnc(-c3ccc(F)cc3)n2n1 > 30 µM, O=C(O/N=C\c1ccc(N2CCCCC2)c([N+](=O)[O-])c1)c1cccc(Cl)c1 > 30 µM, COC1=C/C(=C/c2c(N)n3cc(C)sc3nc2=O)C=CC1=O > 30 µM, NC(=O)c1ncn([C@@H]2O[C@H](CO)[C@@H](O)[C@H]2O)n1 > 30 µM, Nc1nc(NCCCN2CCOCC2)nc(Nc2ccccc2F)c1[N+](=O)[O-] > 30 µM, CC(C)OC(=O)c1nnn(-c2nonc2N)c1CSc1ccccn1 > 30 µM, Cc1ccc(NC(=O)Nc2cc(-c3ccccc3)nn2C)cc1Cl > 30 µM, Fc1ccc(CNc2nc(-c3cccnc3)nc3ccccc23)cc1 > 30 µM, Cc1ccc(C(C(=O)NC2CCCCC2)N(CC2CCCO2)C(=O)CNC(=O)c2cccs2)cc1 (stereo unspecified) > 30 µM, O=C(O)CNCC1COc2ccccc2O1 (stereo unspecified) > 30 µM, CCOC(=O)c1c(C)[nH]c(C)c1S(=O)(=O)N(C)CC(=O)Nc1cccc(F)c1 > 30 µM, CCOC(=O)c1c(C)[nH]c(C)c1S(=O)(=O)NCC(=O)Nc1ccccn1 > 30 µM, C/C(=N\NC(=O)c1nnn(-c2nonc2N)c1CN1CCc2ccccc21)c1ccccc1O > 30 µM, O=[N+]([O-])c1cc(Cl)ccc1N1CCCCC1 > 30 µM, Cc1ccc(N(c2ncnc(N)c2[N+](=O)[O-])C2CCCCC2)cc1 > 30 µM, O=C(CS(=O)(=O)c1ccccc1)c1cc2ccccc2oc1=O > 30 µM, CCc1ccc(/C=N/Nc2ncnc3nc[nH]c23)cc1 > 30 µM, CC(C)CNc1nc(N)c([N+](=O)[O-])c(NCC2CCCO2)n1 (stereo unspecified) > 30 µM, O=S(=O)(/C=C/c1ccccc1)N1CCN(Cc2ccc3c(c2)OCO3)CC1 > 30 µM, CCCCC(=O)Nc1nn(CC(C)C)c2nc3ccccc3cc12 > 30 µM, Cc1[nH]nc2c1C(c1cccs1)C1=C(CCCC1=O)N2 (stereo unspecified) > 30 µM, COc1ccc(-c2nn(-c3ccccc3)cc2/C=N/NC(=S)NC(C)C)cc1OC > 30 µM, NC(=O)c1c(NC(=O)CN2C(=O)CCC2=O)sc2c1CCCCC2 > 30 µM, Cc1ccc(-c2nnc(SCc3ccccc3F)o2)cc1 > 30 µM, Cc1ccccc1NC(=O)CSc1nnc2ccc(-c3ccncc3)nn12 > 30 µM, CC(C)OCCCN1CN(S(=O)(=O)c2cccc(Cl)c2)c2nc3ccccc3nc21 > 30 µM, Nc1nc(NCCCN2CCOCC2)nc(Nc2cccc(Cl)c2)c1[N+](=O)[O-] > 30 µM, CCOC(=O)C1=C(C)Nc2ncnn2C1c1cc(OC)ccc1OC (stereo unspecified) > 30 µM, CS(=O)(=O)N(Cc1ccccc1)c1ccc(C(=O)Nc2ccccc2Sc2ccccc2)cc1 > 30 µM, CN(C)Cc1ccc(-c2nc3cccc4c3n2CCNC4=O)cc1 > 30 µM, Cc1ccc(Nc2nc(N)c([N+](=O)[O-])c(NCCO)n2)cc1C > 30 µM, Cc1nnc(SCC(=O)Nc2nccs2)n(N)c1=O > 30 µM, COCCn1c(SCC(=O)NC(=O)NC(C)C)nc2ccccc21 > 30 µM, O=C(Cn1nnc(-c2ccccc2)n1)N/N=C/c1ccc(-c2ccc(Cl)cc2)o1 > 30 µM, CSc1nnc2ccc(-c3cccs3)nn12 > 30 µM, COc1ccc2c(c1)-c1c(ssc1=S)C(C)(C)N2C(=O)CSC1=NCCS1 > 30 µM, COc1cccc(CNS(=O)(=O)c2cc(CN3C(=O)c4cccnc4C3=O)ccc2OC)c1 > 30 µM, CCOC(=O)N1CCC(NC(=O)c2cc3sccc3n2CC)CC1 > 30 µM, Cn1c(SCc2nc(-c3ccccc3)no2)nnc1-c1ccco1 > 30 µM, Cc1ccc2sc(N3CCN(CCNC(=O)c4ccco4)CC3)nc2c1C > 30 µM, O=C(c1noc2c1CCc1ccccc1-2)N1CCOCC1 > 30 µM, CC1CCCCC1NS(=O)(=O)c1ccc2c(c1)CC(=O)N2C (stereo unspecified) > 30 µM, Cc1nn(-c2ccccc2)cc1/C=N/O > 30 µM, O=C(C1=C[C@@H](c2ccc(C(F)(F)F)cc2)C[C@@H](OCCCCO)O1)N1CCN(Cc2ccccc2)CC1 > 30 µM, O=C(C1CCCO1)N1N=C(c2ccc(Br)cc2)CC1c1ccco1 (stereo unspecified) > 30 µM, CCc1ccc(C2NC(=S)NC3=C2C(=O)CC(C)(C)C3)cc1 (stereo unspecified) > 30 µM, CCOc1cc(C2c3c(n[nH]c3C)C(=O)N2c2ccc(Br)cc2)ccc1O (stereo unspecified) > 30 µM, Cc1ccc2sc(N(CCN(C)C)C(=O)c3ccc(S(=O)(=O)N4CC(C)OC(C)C4)cc3)nc2c1C (stereo unspecified) > 30 µM, C=CCn1cc(/C=C/c2cc[n+](C)cc2)c2ccccc21 > 30 µM, CCCCCC(=O)N1CCN(S(=O)(=O)c2ccc3c(c2)OCCCO3)CC1 > 30 µM, CCCCC(=O)Nc1ncc(S(=O)(=O)c2ccc([N+](=O)[O-])cc2)s1 > 30 µM, Cc1ccc(C(=O)Nc2ncc([N+](=O)[O-])s2)cc1 > 30 µM, O=C(COc1ccc(Cl)cc1)Nc1ncc([N+](=O)[O-])s1 > 30 µM, COc1ccc(/C=C2/S/C(=N/S(=O)(=O)Cc3ccccc3)NC2=O)cc1OC > 30 µM, O=C(COc1ccccc1[N+](=O)[O-])N/N=C/c1ccc(OC(=O)c2ccco2)cc1 > 30 µM, CC(C)N1CCc2c(sc(NC(=O)Cc3ccccc3)c2C(N)=O)C1 > 30 µM, O=C(N/N=C/c1ccccn1)c1cccnc1 > 30 µM, COc1cccc2cc(CC(=O)c3ccccc3)c(=O)oc12 > 30 µM, O=C(O)c1ccccc1Nc1ccnc(C(F)(F)F)c1 > 30 µM, CC1CCCCN1c1ncnc2ccccc12 (stereo unspecified) > 30 µM, CCCn1c(SCC(=O)N2CCCCC2)nnc1-c1ccccn1 > 30 µM, Nc1nc(F)nc2c1ncn2[C@@H]1O[C@H](CO)[C@@H](O)[C@H]1O > 30 µM
